Structures can show the parent of a compound that is named as a salt. This is one part of the list. Many values rest on one well or one pass, so single values are uncertain. Square brackets hold non-standard residues; d marks the D form. Peptide text beside a SMILES is read from it. * marks the point of attachment. Sta = CC(C)C[C@H](N)[C@@H](O)CC(=O)O; Isovaleryl = CC(C)CC(=O)*
system: Drosophila melanogaster DPAGT1 (Alg7) RNAi eye model; assay: eye size Z-score vs DMSO-treated DPAGT1 model flies; higher = larger eye (suppression of DPAGT1 phenotype); conditions: 5 uM

Structure (SMILES) | eye size Z-score
CCCN[C@H]1CCc2nc(N)sc2C1 [Pramipexole dihydrochloride] | 0.1
Cc1cc(=O)oc2cc(O)ccc12 [Hymecromone] | -0.76
CN(C)CCCN1c2ccccc2[S+]([O-])c2ccc(Cl)cc21 (stereo not drawn) [Chlorpromazine Sulfoxide] | -1.03
Cc1nc2ccccc2n1Cc1ccc(Cl)cc1 [Chlormidazole] | 0.71
Cn1c(=O)c2nc[nH]c2n(C)c1=O [Theophylline monohydrate] | -0.16
c1ccc(C2CN3CCSC3=N2)cc1 (stereo not drawn) [Tetramisole hydrochloride] | -0.15
C=C1c2cccc(O)c2C(=O)C2=C(O)[C@]3(O)C(=O)C(C(N)=O)=C(O)[C@@H](N(C)C)[C@@H]3[C@@H](O)[C@H]12 [Methacycline hydrochloride] | 0.02
Cc1scc2c1N(C(=O)CN1CCN(C)CC1)c1ccccc1NC2=O [Telenzepine dihydrochloride] | -1.31
CO[C@H]1/C=C/O[C@@]2(C)Oc3c(C)c(O)c4c(c3C2=O)C2=NC3(CCN(CC(C)C)CC3)NC2=C(NC(=O)/C(C)=C\C=C\[C@H](C)[C@H](O)[C@@H](C)[C@@H](O)[C@@H](C)[C@H](OC(C)=O)[C@@H]1C)C4=O [Rifabutin] | 0.27
O=C(O)Cc1csc(-c2ccc(Cl)cc2)n1 [Fenclozic acid] | 0.4
O=C(Cn1ccnc1[N+](=O)[O-])NCCO [Etanidazole] | 0.64
CN(C)CCN(Cc1cccs1)c1ccccn1 [Methapyrilene hydrochloride] | 0.27
COc1c(O[C@@H]2O[C@H](CO)[C@@H](O)[C@H](O)[C@H]2O)cc2c(c1OC)-c1ccc(SC)c(=O)cc1[C@@H](NC(C)=O)CC2 [Thiocolchicoside] | 0.01
CO[C@@H]1[C@@H](O[C@@H]2O[C@H](C)[C@@H](O[C@H]3C[C@@](C)(O)[C@@H](O)[C@H](C)O3)[C@H](N(C)C)[C@H]2O)[C@@H](CC=O)C[C@@H](C)[C@@H](O[C@H]2CC[C@H](N(C)C)[C@@H](C)O2)/C=C/C=C/C[C@@H](C)OC(=O)C[C@H]1OC(C)=O [Acetyl spiramycin] | 1.77
Clc1ccc(C(Cn2ccnc2)OCc2c(Cl)cccc2Cl)c(Cl)c1 (stereo not drawn) [Isoconazole] | 1.04
NC(=O)N1c2ccccc2C=Cc2ccccc21 [Carbamazepine] | 1.37
Nc1nc(F)nc2c1ncn2[C@@H]1O[C@H](CO)[C@@H](O)[C@@H]1O [Fludarabine] | -0.18
Nc1nc(=O)c2nc(CNc3ccc(C(=O)N[C@@H](CCC(=O)O)C(=O)O)cc3)cnc2[nH]1 [Folic acid] | -0.38
CC(=O)N[C@@H](CC(C)C)C(=O)O [N-Acetyl-L-leucine] | -0.48
CC(C)C(=O)OCC(=O)[C@@]12O[C@H](C3CCCCC3)O[C@@H]1C[C@H]1[C@@H]3CCC4=CC(=O)C=C[C@]4(C)[C@H]3[C@@H](O)C[C@@]12C [Ciclesonide] | -0.22
O=C1CN2Cc3c(ccc(Cl)c3Cl)N=C2N1 [Anagrelide] | 0.5
CC(C)NCC(O)COc1ccc(COCCOC(C)C)cc1 (stereo not drawn) [Bisoprolol hemifumarate] | 0.52

Structure (SMILES) | eye size Z-score
Nc1nc(=S)c2ncn([C@@H]3O[C@H](CO)[C@@H](O)[C@H]3O)c2[nH]1 [Thioguanosine] | -0.3
CCOCC(O)COc1ccc(NC(=O)CC[S+](C)C)cc1 (stereo not drawn) [Suplatast Tosylate] | 0.6
O=C(NCC(O)CO)c1c(I)c(C(=O)NCC(O)CO)c(I)c(N(CCO)C(=O)CO)c1I (stereo not drawn) [Ioversol] | 0
CO/N=C(\C(=O)N[C@@H]1C(=O)N2C(C(=O)O)=C(COC(N)=O)CS[C@H]12)c1ccco1 [Cefuroxime sodium salt] | 0.28
Nc1ccc(S(=O)(=O)Nc2ccnn2-c2ccccc2)cc1 [Sulfaphenazole] | 0.34
CCC(=O)c1c(O)cc(O)cc1O [Flopropione] | -0.13
Nc1ccc2cc3ccc(N)cc3nc2c1 [Proflavine hemisulfate] | 0.92
Cc1cc(CC(=O)O)n(C)c1C(=O)c1ccc(Cl)cc1 [Zomepirac sodium salt] | 0.11
CC[C@H]1OC(=O)[C@H](C)[C@@H](O[C@H]2C[C@@](C)(OC)[C@@H](O)[C@H](C)O2)[C@H](C)[C@@H](O[C@@H]2O[C@H](C)C[C@H](N(C)C)[C@H]2O)[C@](C)(O)C[C@@H](C)[C@@H]2N[C@@H](COCCOC)O[C@H]([C@H]2C)[C@]1(C)O [Dirithromycin] | -0.95
O=C1CC2(CCCC2)CC(=O)N1CCCCN1CCN(c2ncccn2)CC1 [Buspirone hydrochloride] | 1.23
Cn1cc([S+](C)[O-])c(=O)c2ccc(F)cc21 (stereo not drawn) [Flosequinan] | 0.51
C[C@H](O)C(=O)Nc1c(I)c(C(=O)NC(CO)CO)c(I)c(C(=O)NC(CO)CO)c1I [Iopamidol] | 0.45
CC(C)CC(=O)N[C@H](C(=O)N[C@H](C(=O)N[C@@H](CC(C)C)[C@@H](O)CC(=O)N[C@@H](C)C(=O)N[C@@H](CC(C)C)[C@@H](O)CC(=O)O)C(C)C)C(C)C [Pepstatin A] (Isovaleryl-VV[Sta]A[Sta]-OH) | 1.11
Oc1ccc(OCc2ccccc2)cc1 [Monobenzone] | -0.48
C[C@H]1C[C@H]2[C@@H]3CCC4=CC(=O)C=C[C@]4(C)[C@@]3(F)[C@@H](O)C[C@]2(C)[C@@]1(O)C(=O)CO [Betamethasone] | -0.3
CCCNC(C)(C)C(=O)Nc1ccccc1C [Quatacaine] | 0.65
C=C1/C(=C\C=C2/CCC[C@]3(C)[C@@H]([C@H](C)/C=C/[C@@H](O)C4CC4)CC[C@@H]23)C[C@@H](O)C[C@@H]1O [Calcipotriene] | -0.33
Cc1ccc(Cl)c(Nc2ccccc2C(=O)O)c1Cl [Meclofenamic acid sodium salt monohydrate] | -0.37
O=C(NCCO[N+](=O)[O-])c1cccnc1 [Nicorandil] | 0.04
COC(=O)Nc1nc2ccc(SC(C)C)cc2[nH]1 [Methiazole] | 0.36
CN(C)CCOc1ccc(/C(=C(/CCCl)c2ccccc2)c2ccccc2)cc1 [Toremifene] | -0.3

In another format: entries from further up.
Structure (SMILES)	eye size Z-score
CC[C@H]1OC(=O)[C@H](C)[C@@H](O[C@H]2C[C@@](C)(OC)[C@@H](O)[C@H](C)O2)[C@H](C)[C@@H](O[C@@H]2O[C@H](C)C[C@H](N(C)C)[C@H]2O)[C@](C)(O)C[C@@H](C)[C@@H]2N[C@@H](COCCOC)O[C@H]([C@H]2C)[C@]1(C)O [Dirithromycin]	-0.95
O=C1CC2(CCCC2)CC(=O)N1CCCCN1CCN(c2ncccn2)CC1 [Buspirone hydrochloride]	1.23
Cn1cc([S+](C)[O-])c(=O)c2ccc(F)cc21 (stereo not drawn) [Flosequinan]	0.51
C[C@H](O)C(=O)Nc1c(I)c(C(=O)NC(CO)CO)c(I)c(C(=O)NC(CO)CO)c1I [Iopamidol]	0.45
CC(C)CC(=O)N[C@H](C(=O)N[C@H](C(=O)N[C@@H](CC(C)C)[C@@H](O)CC(=O)N[C@@H](C)C(=O)N[C@@H](CC(C)C)[C@@H](O)CC(=O)O)C(C)C)C(C)C [Pepstatin A] (Isovaleryl-VV[Sta]A[Sta]-OH)	1.11
Oc1ccc(OCc2ccccc2)cc1 [Monobenzone]	-0.48
C[C@H]1C[C@H]2[C@@H]3CCC4=CC(=O)C=C[C@]4(C)[C@@]3(F)[C@@H](O)C[C@]2(C)[C@@]1(O)C(=O)CO [Betamethasone]	-0.3
CCCNC(C)(C)C(=O)Nc1ccccc1C [Quatacaine]	0.65
C=C1/C(=C\C=C2/CCC[C@]3(C)[C@@H]([C@H](C)/C=C/[C@@H](O)C4CC4)CC[C@@H]23)C[C@@H](O)C[C@@H]1O [Calcipotriene]	-0.33
Cc1ccc(Cl)c(Nc2ccccc2C(=O)O)c1Cl [Meclofenamic acid sodium salt monohydrate]	-0.37

From the supplement of paper PMC11542785
